According to PubChem BioAssay AID330 (DTP/NCI, 2004):
The list is a part of this screen's results and no random one: it gathers tests that were run many times, whatever their T/C, doses with no T/C, and many T/C values between a quarter and a half above the control. Further doses and runs are listed elsewhere. T/C: endpoint of the treated group in % of that of the vehicle group. Some entries give survivors of the animals treated and no T/C: the source holds a T/C of zero for them, seemingly a mark for toxic or unscored doses. Some doses without a T/C left all or most animals alive at the check, yet need not have been tolerated: survival well below the control is almost never listed, so the zero probably covers shortened survival too. Counts of survivors are from the toxicity check (mostly the fifth day) where no day follows; animals may have died later. Schedules are NCI's codes, taken here to give the interval after Q, in days (D) or hours (H), and the number of doses after X. Some entries hold several experiments; the values are given in rising order. Where survival is the endpoint, this PubChem deposit counts one and a half times the control or more as active, and values a quarter to a half above the control carry no call in these data; other NCI protocols may use other cut-offs. Counts like (3×) say how often a value occurs here. Some T/C values are followed by the survivors on the day toxicity was checked, most often the fifth; where none is given, no animal had died by that day.

Tested on: P388 leukemia ip, CD2F1 mice, survival T/C
Experiment: NCI In Vivo Anticancer Drug Screen. Data for tumor model P388 Leukemia (intraperitoneal) in CD2F1 (CDF1) mice
Details: T/C endpoint: median survival time, higher T/C = longer survival
[1] = dose: 100.0 mg/kg/injection, schedule: Q04DX002 (ip), vehicle: saline with Tween-80
[2] = dose: 200.0 mg/kg/injection, schedule: Q04DX002 (ip), vehicle: saline with Tween-80
[3] = dose: 50.0 mg/kg/injection, schedule: Q01DX009 (ip), vehicle: saline
[4] = dose: 100.0 mg/kg/injection, schedule: Q01DX009 (ip), vehicle: saline
[5] = dose: 200.0 mg/kg/injection, schedule: Q01DX009 (ip), vehicle: saline
[6] = dose: 240.0 mg/kg/injection, schedule: Q01DX005 (ip), vehicle: Klucel (hydroxypropylcellulose) (HPC)
[7] = dose: 12.5 mg/kg/injection, schedule: Q01DX009 (ip), vehicle: saline
[8] = dose: 25.0 mg/kg/injection, schedule: Q01DX009 (ip), vehicle: saline

CCOC(=O)/[C](=N\N=P(N(C)C)(N(C)C)N(C)C)[Sb]([CH3])[CH3]
survivor count (dose: 50.0 mg/kg/injection, schedule: Q01DX001 (ip), vehicle: saline): 2 of 6 | survivor count (dose: 100.0 mg/kg/injection, schedule: Q01DX001 (ip), vehicle: saline): 3 of 6 | survivor count (dose: 200.0 mg/kg/injection, schedule: Q01DX001 (ip), vehicle: saline): 0 of 6 | survivor count (dose: 400.0 mg/kg/injection, schedule: Q01DX001 (ip), vehicle: saline): 0 of 6

CC(=O)Nc1c2sscc-2n(C)c1=O
survivor count (dose: 3.13 mg/kg/injection, schedule: Q01DX009 (ip), vehicle: saline with Tween-80): 5 of 6 | survivor count (dose: 6.25 mg/kg/injection, schedule: Q01DX009 (ip), vehicle: saline with Tween-80): 0 of 6 | survivor count (dose: 12.5 mg/kg/injection, schedule: Q01DX009 (ip), vehicle: saline with Tween-80): 0 of 6 | survivor count (dose: 25.0 mg/kg/injection, schedule: Q01DX009 (ip), vehicle: saline with Tween-80): 0 of 6

COc1ccc2c(c1OC)C(O)N1CCc3cc4c(cc3C1=C2C(=O)c1ccccc1)OCO4 (stereo not drawn)
survivor count (dose: 100.0 mg/kg/injection, schedule: Q01DX005 (ip), vehicle: Klucel (hydroxypropylcellulose) (HPC)): 0 of 6 and 1 of 5 | survivor count (dose: 200.0 mg/kg/injection, schedule: Q01DX005 (ip), vehicle: Klucel (hydroxypropylcellulose) (HPC)): 0 of 6

COc1ccc2c(C#N)cc3c(c[n+](C)c4ccccc34)c2c1
survivor count (dose: 50.0 mg/kg/injection, schedule: Q04DX003 (ip), vehicle: distilled water + Tween-80): 6 of 6 | survivor count (dose: 100.0 mg/kg/injection, schedule: Q04DX003 (ip), vehicle: distilled water + Tween-80): 5 of 6 | survivor count (dose: 200.0 mg/kg/injection, schedule: Q04DX003 (ip), vehicle: distilled water + Tween-80): 1 of 6 | survivor count (dose: 400.0 mg/kg/injection, schedule: Q04DX003 (ip), vehicle: distilled water + Tween-80): 0 of 6

COCC(=O)Nc1ncc([N+](=O)[O-])s1
survivor count (dose: 50.0 mg/kg/injection, schedule: Q01DX009 (ip), vehicle: Klucel (hydroxypropylcellulose) (HPC)): 6 of 6 | survivor count (dose: 100.0 mg/kg/injection, schedule: Q01DX009 (ip), vehicle: Klucel (hydroxypropylcellulose) (HPC)): 6 of 6 | survivor count (dose: 200.0 mg/kg/injection, schedule: Q01DX009 (ip), vehicle: Klucel (hydroxypropylcellulose) (HPC)): 6 of 6

CN=C(N)N/N=C(\C)c1ccc2c(c1)-c1ccc(/C(C)=N/NC(N)=NC)c3cccc-2c13
survivor count (dose: 50.0 mg/kg/injection, schedule: Q04DX002 (ip), vehicle: saline with Tween-80): 1 of 6 | survivor count [1]: 0 of 6 | survivor count [2]: 1 of 6

CCCCCCCCCCCCC[N+]1([O-])CCCCCC1
survivor count [3]: 6 of 6 | survivor count [4]: 4 of 6 | survivor count [5]: 0 of 6

O=C1CC(Cl)(CS(F)(F)(F)(F)F)O1 (stereo not drawn)
survivor count (dose: 100.0 mg/kg/injection, schedule: Q01DX005 (ip), vehicle: saline + alcohol): 0 of 5 | survivor count (dose: 100.0 mg/kg/injection, schedule: Q01DX005 (ip), vehicle: saline with Tween-80): 0 of 5 and 2 of 5 | survivor count (dose: 200.0 mg/kg/injection, schedule: Q01DX005 (ip), vehicle: saline with Tween-80): 0 of 5

Nc1ccc(S(=O)(=O)Nc2c(N)[nH]c(=S)[nH]c2=O)cc1
T/C (dose: 60.0 mg/kg/injection, schedule: Q01DX005 (ip), vehicle: Klucel (hydroxypropylcellulose) (HPC)): 141 % of control | T/C (dose: 120.0 mg/kg/injection, schedule: Q01DX005 (ip), vehicle: Klucel (hydroxypropylcellulose) (HPC)): 136 % of control [4 of 6 alive] | survivor count [6]: 3 of 6

O=C(NNS(=O)(=O)CCC(NC(=O)OCc1ccccc1)C(=O)OCc1ccccc1)OCc1ccccc1 (stereo not drawn)
survivor count (dose: 200.0 mg/kg/injection, schedule: Q01DX009 (ip), vehicle: other): 6 of 6

CC[CH2][Sn]([CH2]CC)([O]C(C)=O)[c]1ccccc1
survivor count [7]: 2 of 6 | survivor count [8]: 0 of 6 | survivor count [3]: 0 of 6 | survivor count [4]: 1 of 6 | survivor count [5]: 0 of 6

Fc1cccc(Cl)c1C(Nc1cnccn1)Nc1cnccn1
survivor count [6]: 1 of 6

CC(C)(C)NC(Cc1ccccc1)=NC1CCCCC1
survivor count (dose: 50.0 mg/kg/injection, schedule: Q04DX002 (ip), vehicle: saline): 6 of 6 | survivor count [1]: 6 of 6 | survivor count [2]: 4 of 6 | survivor count (dose: 400.0 mg/kg/injection, schedule: Q04DX002 (ip), vehicle: saline with Tween-80): 0 of 6

CNC1=C(C)C(=O)C(C)=C(C(C)(C)CC(=O)n2cc(F)c(=O)[nH]c2=O)C1=O
T/C (dose: 400.0 mg/kg/injection, schedule: Q01DX001 (ip), vehicle: saline with Tween-80): 137 % of control

CCN(CC)CCCC(C)Nc1cc(OC)c2nc(C)ccc2c1OC (stereo not drawn)
survivor count (dose: 0.78 mg/kg/injection, schedule: Q01DX009 (ip), vehicle: saline): 5 of 6 | survivor count (dose: 6.25 mg/kg/injection, schedule: Q01DX009 (ip), vehicle: saline): 3 of 6 | survivor count [7]: 0 of 6 | survivor count [8]: 0 of 6 | survivor count (dose: 50.0 mg/kg/injection, schedule: Q01DX009 (ip), vehicle: saline with Tween-80): 0 of 6 | survivor count (dose: 100.0 mg/kg/injection, schedule: Q01DX009 (ip), vehicle: saline with Tween-80): 0 of 6 | survivor count (dose: 200.0 mg/kg/injection, schedule: Q01DX009 (ip), vehicle: saline with Tween-80): 0 of 6

Cc1cccc2c(Nc3ccc(NS(C)(=O)=O)cc3)c3ccccc3nc12
T/C (dose: 1.2 mg/kg/injection, schedule: Q01DX009 (ip), vehicle: saline): 137 % of control | T/C (dose: 2.2 mg/kg/injection, schedule: Q01DX009 (ip), vehicle: saline with Tween-80): 145 % of control | T/C (dose: 3.3 mg/kg/injection, schedule: Q01DX009 (ip), vehicle: saline with Tween-80): 145 % of control | T/C (dose: 5.0 mg/kg/injection, schedule: Q01DX009 (ip), vehicle: saline with Tween-80): 145 % of control | T/C (dose: 22.0 mg/kg/injection, schedule: Q04DX003 (ip), vehicle: saline with Tween-80): 140 % of control | survivor count (dose: 75.0 mg/kg/injection, schedule: Q01DX009 (ip), vehicle: saline with Tween-80): 6 of 6 | survivor count (dose: 150.0 mg/kg/injection, schedule: Q01DX009 (ip), vehicle: saline with Tween-80): 6 of 6 | survivor count (dose: 300.0 mg/kg/injection, schedule: Q01DX009 (ip), vehicle: saline with Tween-80): 6 of 6

[CH3][Bi]1[O]C(=O)c2ccccc2[S]1
T/C (dose: 50.0 mg/kg/injection, schedule: Q01DX005 (ip), vehicle: Klucel (hydroxypropylcellulose) (HPC), evaluated on day 20): 97 [5 of 6 alive] and 102 % of control | T/C (dose: 50.0 mg/kg/injection, schedule: Q01DX005 (ip), vehicle: Klucel (hydroxypropylcellulose) (HPC), evaluated on day 30): 94 % of control | survivor count (dose: 50.0 mg/kg/injection, schedule: Q01DX005 (ip), vehicle: Klucel (hydroxypropylcellulose) (HPC)): 4 of 6 | T/C (dose: 100.0 mg/kg/injection, schedule: Q01DX005 (ip), vehicle: Klucel (hydroxypropylcellulose) (HPC), evaluated on day 20): 118 and 119 % of control | T/C (dose: 100.0 mg/kg/injection, schedule: Q01DX005 (ip), vehicle: Klucel (hydroxypropylcellulose) (HPC), evaluated on day 30): 100 % of control (2×) | T/C (dose: 200.0 mg/kg/injection, schedule: Q01DX005 (ip), vehicle: Klucel (hydroxypropylcellulose) (HPC), evaluated on day 20): 108 [5 of 6 alive] and 121 % of control | T/C (dose: 200.0 mg/kg/injection, schedule: Q01DX005 (ip), vehicle: Klucel (hydroxypropylcellulose) (HPC), evaluated on day 30): 101 and 112 % of control
